# Data published in PubChem BioAssay AID651640 (Broad Institute, 2012).
# The campaign covered roughly 350,000 compounds. About 6,000 (1.7%) were called active. The inconclusive results got no clear call from the source; some entries with a clear call stand among them for comparison. Cut-off read from the data, not from the text of the source: active = CPE inhibition above about 20% (passing the limit was not always enough); inconclusive = no clear call, values can overlap the other calls; tested in BHK-21 cells.
# Assay: protection of cells from dengue 2 killing – plate reader, single concentration, primary screen (AID 651640);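 note: 0% = median of neutral control wells and 100% = median of positive control wells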
# Settings: DENV2-infected cells, cytopathic effect rescue, at 9.99 µM, stronger effect = higher value
row,SMILES,CPE inhibition
1,C[C@@H]1CCCCO[C@@H](CN(C)Cc2ccccc2)[C@H](C)CN([C@@H](C)CO)C(=O)c2cc(NC(=O)NC3CCCCC3)ccc2O1,active: 23.9%
2,C[C@@H]1CN([C@H](C)CO)C(=O)Cc2cc(NC(=O)c3ccncc3)ccc2O[C@@H]1CN(C)C(=O)Nc1ccccc1,inconclusive: 59.2%
3,CC1=CC(C)(C)NC(=S)N1c1ccc(N(C)C)cc1,inconclusive: 27.6%
4,Cc1noc(C)c1S(=O)(=O)N(C)C[C@@H]1Oc2ccc(NS(=O)(=O)c3ccc(Cl)cc3)cc2CC(=O)N([C@@H](C)CO)C[C@H]1C,inconclusive: 44.9%
5,CC1(C)NC(=O)N(CC(=O)OCC(=O)c2ccc(F)cc2)C1=O,inconclusive: 37.6%
6,CC(=O)c1ccc(NC(=O)Cn2cnc(S(=O)(=O)N3CCc4ccccc43)c2)cc1,inconclusive: 33.8%
7,COc1ccc(S(=O)(=O)Nc2ccc3c(c2)C(=O)N([C@@H](C)CO)C[C@H](C)[C@@H](CN(C)Cc2ccc(C(F)(F)F)cc2)OCCCC[C@H](C)O3)cc1,inactive: -8.85%
8,COc1cccc(NC(=O)CN(C)C(=O)c2cccc(S(=O)(=O)N3c4ccccc4CC3C)c2)c1 (stereo not drawn),active: 57.8%
9,C/C=C/c1ccc([C@@H]2[C@H](CO)N3C(=O)CN(C(=O)Nc4ccc(OC)cc4)C[C@@H]23)cc1,inconclusive: 46.6%
10,CCCNC(=O)C[C@@H]1CC[C@@H]2[C@H](COC[C@@H](O)CN2C(=O)c2ccccn2)O1,inactive: -4.08%
11,O=C(N=C1SC2CS(=O)(=O)CC2N1c1ccccc1)C1CC1 (stereo not drawn),inactive: -2.97%
12,Cc1ccc(S(=O)(=O)N2CCN(C(=O)[C@H](Cc3ccccc3)NC(=O)c3ccco3)CC2)cc1,inconclusive: 52.8%
13,Cc1cccc2nc(-c3ccccc3)c(-c3ccc(CN4CCC(c5nc6ccccc6[nH]5)CC4)cc3)nc12,inactive: 10.2%
14,CC(=O)CSc1ccc(-c2nc3cc(C)c(C)cc3[nH]2)cn1,active: 26.6%
15,COc1ccc(CN2CCN(Cc3ccc4ccccc4c3)CC2)cc1OC,inactive: 0.149%
16,O=C(C[C@H]1C=C[C@@H](NC(=O)C2CCC2)[C@H](CO)O1)NCC1CC1,inconclusive: 20.2%
17,C[C@H](CO)N1C[C@H](C)[C@H](CN(C)Cc2ccc(Oc3ccccc3)cc2)Oc2ccc(NS(=O)(=O)c3ccc(Cl)cc3)cc2C1=O,inconclusive: 49.3%
18,C[C@@H]1CN([C@H](C)CO)C(=O)CCCn2cc(nn2)CO[C@H]1CN(C)S(=O)(=O)c1cn(C)cn1,inconclusive: 27.4%
19,CN1CCN(C(=O)C[C@@H]2CC[C@H]3[C@@H](COc4ccc(NC(=O)C5CC5)cc4C(=O)N3C)O2)CC1,inactive: 15.1%
20,CCN1C(=NCCN2CCOCC2)N[C@@H](c2ccccc2)C(C(=O)OC)=C1C,inactive: -3.61%
21,Cc1ccc(C)c(N(C)S(=O)(=O)c2ccc3c(c2)oc(=O)n3C)c1,inconclusive: 25.5%
22,CCCNC(=O)N(Cc1cccnc1)C[C@H]1N[C@H](CO)[C@@H]1c1ccccc1,inactive: -0.222%
23,Cc1ccc(-c2nn(-c3ccccc3)cc2/C=C/C(=O)OCC(=O)NC2CC2)o1,inconclusive: 20.4%
24,C[C@@H]1CN([C@H](C)CO)C(=O)Cc2cc(NC(=O)CCN3CCOCC3)ccc2O[C@@H]1CN(C)S(=O)(=O)c1cn(C)cn1,active: 21.9%
25,CCN(CC(=O)N1CCOCC1)S(=O)(=O)c1cc(Cl)ccc1Cl,inconclusive: 34.7%

# Another view of part of the listing above:
row | SMILES | CPE inhibition
10 | CCCNC(=O)C[C@@H]1CC[C@@H]2[C@H](COC[C@@H](O)CN2C(=O)c2ccccn2)O1 | inactive: -4.08%
16 | O=C(C[C@H]1C=C[C@@H](NC(=O)C2CCC2)[C@H](CO)O1)NCC1CC1 | inconclusive: 20.2%

# Later entries:

row,SMILES,CPE inhibition
1,C[C@@H]1CN([C@@H](C)CO)C(=O)Cc2cc(NS(=O)(=O)c3cn(C)cn3)ccc2O[C@H]1CN(C)Cc1ccc(-c2ccccc2)cc1,active: 26.3%
2,O=C(C[C@@H]1C[C@H]2c3cc(NC(=O)Nc4ccccc4)ccc3O[C@H]2[C@H](CO)O1)NC1CCCC1,inactive: 3.39%
3,CC1Nc2ncnc(N3CCc4ccccc4C3)c2N(Cc2ccc(Br)cc2)C1=O (stereo not drawn),inconclusive: 31.8%
4,CC(C)C[C@@H]1Cc2[nH]c(=S)[nH]c(=O)c2[C@H](C)O1,inconclusive: 30.3%
5,COc1ccc(C#Cc2ccc([C@H]3[C@H]4CN(C(C)=O)CC(=O)N4[C@H]3CO)cc2)cc1,inconclusive: 23.6%
6,Cc1ccc(S(=O)(=O)N(C)C[C@H]2OCCCC[C@@H](C)Oc3ccc(NC(=O)Nc4ccc(F)cc4)cc3C(=O)N([C@H](C)CO)C[C@H]2C)cc1,inactive: 4.04%
7,C[C@H](CO)N1C[C@H](C)[C@H](CN(C)S(=O)(=O)c2cccs2)Oc2ncccc2C1=O,active: 37.2%
8,COC(=O)N/N=C/c1ccc(-c2ccc(C)c(Cl)c2)o1,inconclusive: 21.8%
9,Cc1cc2[nH]c(=O)c(=O)[nH]c2cc1S(=O)(=O)Nc1cccc(Cl)c1C,inconclusive: 38.1%
10,NC(=NCCCCCCN=C(N)/N=C(\N)Nc1ccc(Cl)cc1)/N=C(\N)Nc1ccc(Cl)cc1,inconclusive: 27.1%
11,Cc1ccc(NC(=O)C2CCCN2C(=O)OCc2ccccc2)c(O)c1 (stereo not drawn),inconclusive: 37.4%
12,COc1ccc(S(=O)(=O)Nc2ccc3c(c2)C(=O)N([C@@H](C)CO)C[C@@H](C)[C@@H](CN(C)Cc2ccncc2)O3)cc1,inconclusive: 20.6%
13,O=C(NCc1cccc(Cl)c1)N1CCN(S(=O)(=O)c2ccccc2F)CC1,inconclusive: 37.6%
14,COc1cccc(S(=O)(=O)N[C@H]2C=C[C@@H](CC(=O)NCc3ccc(Cl)cc3)O[C@H]2CO)c1,inconclusive: 50.9%
15,COc1ccc(-c2csc(C(O)c3cccc(OC)c3)n2)cc1 (stereo not drawn),active: 52%
16,Cc1c(C(=O)O)c(O)cc2c1C(=O)c1c(O)c([C@@H]3O[C@H](CO)[C@@H](O)[C@H](O)[C@H]3O)c(O)c(O)c1C2=O,inconclusive: 58.3%
17,CC(C)(C)c1nnc2sc(SCC(=O)N3CCc4ccccc43)nn2c1=O,inactive: 2.23%
18,Cc1cc(Br)ccc1NC(=O)CN(C)C(=O)COc1cccc2c1OC(C)(C)C2,active: 90.8%
19,Cc1ccc(NC(=O)N2CCCC2C(=O)NCC2CCCCC2)cc1 (stereo not drawn),inactive: -0.266%
20,COc1cccc(OCc2cc(C(=O)N(C)CCC3CCCCO3)no2)c1 (stereo not drawn),active: 39.3%
21,COc1ccc(S(=O)(=O)Nc2ccc3c(c2)C(=O)N([C@H](C)CO)C[C@@H](C)[C@H](CN(C)C)OCCCC[C@@H](C)O3)cc1,inactive: 1.6%
22,CC(C)NC(=O)N1[C@H](CO)[C@@H]2c3ccccc3N(C(=O)c3ccncc3)C[C@@H]21,inconclusive: 81.5%
23,CN1C(=O)c2cc(NC(=O)c3cccc(F)c3)ccc2OC[C@H]2O[C@H](CC(=O)O)CC[C@@H]21,inactive: 12.5%
24,Cn1nc(C(C)(C)C)cc1N1C(=O)CCC1(C)C(=O)NCc1ccccc1 (stereo not drawn),inconclusive: 22.4%
25,C[C@@H]1CN([C@H](C)CO)C(=O)c2cc(NS(=O)(=O)c3ccccc3)ccc2O[C@H]1CN(C)C(=O)Nc1ccc(F)cc1,inconclusive: 22.2%

# Looked up above.
# CPE inhibition, `C[C@@H]1CN([C@H](C)CO)C(=O)Cc2cc(NC(=O)c3ccncc3)ccc2O[C@@H]1CN(C)C(=O)Nc1ccccc1` reads inconclusive: 59.2%
# CPE inhibition, `CC(C)C[C@@H]1Cc2[nH]c(=S)[nH]c(=O)c2[C@H](C)O1` reads inconclusive: 30.3%

# The listing continues:

row,SMILES,CPE inhibition
1,NC(=O)NC(CC(=O)NCCc1ccccn1)c1ccccc1Cl (stereo not drawn),inconclusive: 24.2%
2,OC[C@@H]1[C@H](c2ccc(-c3cccnc3)cc2)[C@H]2CN(CC3CC3)CCCCN12,inconclusive: 51.6%
3,CCOc1ccc(NC(=O)CSc2nnc(-c3ccco3)n2N)cc1,inactive: -2.1%
4,COc1cccc(-c2nnc(NC(=O)C3CCCCC3)o2)c1,inconclusive: 20.7%
5,Cc1ccc(C)c(NC(=O)c2cc[n+](C)cc2)c1,inactive: -4.84%
6,CC(C)(C)C1CCC(=O)N(CCOc2ccccc2)CC1 (stereo not drawn),active: 65.9%
7,CC(C)(C)[C@H]1C=C(C(=O)N2CCCC2)O[C@@H](OCc2ccc(CO)cc2)C1,inactive: 18.5%
8,CCOc1ccnc2c1c(=O)n(Cc1cc(OC)cc(OC)c1)c(=O)n2C,inconclusive: 48%
9,N=c1oc2cc(O)ccc2cc1C(=O)Nc1nc2ccccc2s1,inconclusive: 21.2%
10,COc1cc(OC)cc(C(=O)NNC(=O)CCC(=O)c2cc(C)sc2C)c1,active: 72.5%
11,COc1cccc(C(=O)Nc2cc3c(cc2C(C)=O)OCCO3)c1,active: 76.1%
12,COc1ccc2c3c([nH]c2c1)[C@H](CO)N(S(C)(=O)=O)CC31CCN(Cc2ccccc2)CC1,inactive: -12.9%
13,OC(CSc1nnnn1-c1ccccc1)Cn1c2ccccc2c2ccccc21 (stereo not drawn),active: 21.2%
14,CCn1c(SCC(=O)NC2CC2)nnc1-c1ccc(OC)cc1,inconclusive: 43.1%
15,O=C(c1ccccc1)c1sc(Nc2ccc3c(c2)OCO3)nc1-c1ccccc1,inconclusive: 26.3%
16,O=C(C[C@@H]1C[C@@H]2c3cc(NS(=O)(=O)c4ccccc4)ccc3O[C@@H]2[C@H](CO)O1)NCC(F)(F)F,inactive: 2.22%
17,C#CCOCCOCCOCCNc1nc(N2CCN(C(=O)Cn3cc(CC(C)O)nn3)CC2)nc(N2CCN(C(=O)[C@H](CCCCN)n3cc(CC(C)O)nn3)CC2)n1 (stereo partly drawn),inconclusive: 54.2%
18,O=C(Nc1ccccc1)[C@@H]1[C@@H](CO)[C@@H]2Cn3c(cccc3=O)[C@@H]2N1CC1CCOCC1,inconclusive: 30.1%
19,COc1cnc(-c2ccccc2)c(-c2ccccc2)n1,inconclusive: 22.7%
20,C[C@@H]1CCCCO[C@@H](CN(C)C)[C@H](C)CN([C@@H](C)CO)C(=O)c2cc(NC(=O)c3ccccc3)ccc2O1,inconclusive: 20.7%
21,Cn1c(=O)c2cc(NC(=S)NCc3ccccc3F)ccc2n1C,inactive: 7.31%
22,C[C@@H]1CN([C@H](C)CO)S(=O)(=O)c2ccc(C#CC3CCCC3)cc2O[C@H]1CN(C)C,active: 61.2%
23,O=C(Cc1ccncc1)NCC[C@H]1CC[C@@H](NC(=O)C2CCOCC2)[C@@H](CO)O1,inconclusive: 21.8%
